Source: PMC4414194
These are yes or no findings as the source states them, for the method shown. In cells and extracts the contact can be indirect. Some entries that bind do so weakly or less than the wild type.

Protein sequences, listed by entry. Tags and fused reporters are not part of them.
UniProt P15976: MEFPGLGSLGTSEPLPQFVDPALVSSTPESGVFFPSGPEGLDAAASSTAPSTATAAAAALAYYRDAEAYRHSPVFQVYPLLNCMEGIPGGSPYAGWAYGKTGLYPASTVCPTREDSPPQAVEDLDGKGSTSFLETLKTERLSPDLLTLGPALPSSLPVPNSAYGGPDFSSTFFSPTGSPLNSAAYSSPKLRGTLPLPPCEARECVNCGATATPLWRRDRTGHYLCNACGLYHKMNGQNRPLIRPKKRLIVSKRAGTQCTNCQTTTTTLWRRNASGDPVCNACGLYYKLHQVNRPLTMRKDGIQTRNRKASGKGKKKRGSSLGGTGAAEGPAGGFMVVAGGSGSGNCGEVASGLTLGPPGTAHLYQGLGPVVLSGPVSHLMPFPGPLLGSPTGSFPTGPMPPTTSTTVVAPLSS
UniProt P56524: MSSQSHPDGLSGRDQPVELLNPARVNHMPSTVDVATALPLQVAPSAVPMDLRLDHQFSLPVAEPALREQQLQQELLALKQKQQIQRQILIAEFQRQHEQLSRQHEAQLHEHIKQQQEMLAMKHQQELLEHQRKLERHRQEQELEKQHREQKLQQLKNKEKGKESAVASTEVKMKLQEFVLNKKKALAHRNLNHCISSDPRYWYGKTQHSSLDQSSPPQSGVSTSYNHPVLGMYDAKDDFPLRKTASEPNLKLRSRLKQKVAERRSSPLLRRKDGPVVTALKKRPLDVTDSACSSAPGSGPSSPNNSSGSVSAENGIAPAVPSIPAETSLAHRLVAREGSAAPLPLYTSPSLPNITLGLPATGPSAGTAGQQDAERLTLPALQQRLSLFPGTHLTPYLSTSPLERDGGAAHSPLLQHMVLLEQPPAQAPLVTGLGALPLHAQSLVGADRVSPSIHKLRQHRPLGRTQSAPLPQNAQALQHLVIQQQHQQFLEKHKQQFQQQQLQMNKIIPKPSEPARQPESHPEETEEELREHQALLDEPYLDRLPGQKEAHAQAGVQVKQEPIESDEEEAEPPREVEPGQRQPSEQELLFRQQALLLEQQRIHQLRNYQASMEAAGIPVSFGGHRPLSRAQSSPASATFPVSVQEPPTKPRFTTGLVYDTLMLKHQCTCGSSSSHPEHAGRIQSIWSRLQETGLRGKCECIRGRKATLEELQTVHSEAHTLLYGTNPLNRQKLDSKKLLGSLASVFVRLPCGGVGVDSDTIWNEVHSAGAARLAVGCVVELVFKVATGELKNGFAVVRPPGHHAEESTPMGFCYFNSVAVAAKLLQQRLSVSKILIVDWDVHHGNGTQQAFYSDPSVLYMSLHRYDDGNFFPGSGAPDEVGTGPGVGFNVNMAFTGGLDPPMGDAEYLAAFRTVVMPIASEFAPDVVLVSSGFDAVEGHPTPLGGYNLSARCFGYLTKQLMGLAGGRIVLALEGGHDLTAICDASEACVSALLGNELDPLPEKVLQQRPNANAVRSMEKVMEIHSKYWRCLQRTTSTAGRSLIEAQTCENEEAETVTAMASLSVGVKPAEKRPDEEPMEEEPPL
UniProt O15379: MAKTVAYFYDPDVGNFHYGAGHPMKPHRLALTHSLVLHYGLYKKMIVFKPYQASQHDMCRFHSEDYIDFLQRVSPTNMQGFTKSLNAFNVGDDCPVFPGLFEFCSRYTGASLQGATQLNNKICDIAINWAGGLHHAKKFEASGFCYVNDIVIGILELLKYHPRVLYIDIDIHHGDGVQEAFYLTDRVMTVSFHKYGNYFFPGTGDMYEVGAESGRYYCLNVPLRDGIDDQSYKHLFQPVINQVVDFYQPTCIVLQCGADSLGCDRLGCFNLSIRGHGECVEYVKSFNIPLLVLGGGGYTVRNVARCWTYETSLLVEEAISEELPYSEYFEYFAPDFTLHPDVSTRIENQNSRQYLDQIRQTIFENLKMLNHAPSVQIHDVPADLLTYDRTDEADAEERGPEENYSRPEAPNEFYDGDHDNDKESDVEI

Assays:
[1] = biological target: GFP-GATA1 (expressed in HEK-293 cells) (human) (UniProt P15976); assay: co-IP; HEK-293 cells transfected with GFP-GATA1 (wt or S161A S187A) and Flag-HDAC3/4, with or without Myc-PAK5 wt/KM; lysates immunoprecipitated with anti-GFP antibody, immunoblotted with anti-Flag and anti-GFP
[2] = biological target: GFP-GATA1 (expressed in MCF-7 cells) (human) (UniProt P15976); assay: co-IP; MCF-7 cells stably infected with shPAK5 (PAK5 knock-down) or control, co-transfected with plasmids; lysates immunoprecipitated with anti-GFP antibody, immunoblotted with anti-Flag and anti-GFP
[3] = biological target: GST-GATA1 fusion protein (human) (UniProt P15976); assay: pull-down; GST pull-down in vitro: GST-HDAC3, GST-HDAC4 or GST-GATA1 fusion protein as bait, incubated with in vitro translated Myc-GATA1 or Flag-HDAC3/4; only the target purified
[4] = biological target: Flag-HDAC4 (expressed in HEK-293 cells) (human) (UniProt P56524); assay: co-IP; HEK-293 cells transfected with GFP-GATA1 and Flag-HDAC3 or Flag-HDAC4; lysates immunoprecipitated with Flag antibodies, immunoblotted with Flag and GFP antibodies
[5] = biological target: Flag-HDAC3 (expressed in HEK-293 cells) (human) (UniProt O15379); assay: as above
[6] = biological target: GST-HDAC4 fusion protein (human) (UniProt P56524); assay: pull-down; GST pull-down in vitro: GST-HDAC3, GST-HDAC4 or GST-GATA1 fusion protein as bait, incubated with in vitro translated Myc-GATA1 or Flag-HDAC3/4; only the target purified
[7] = biological target: GST-HDAC3 fusion protein (human) (UniProt O15379); assay: as above

Flag-HDAC3 (expressed in HEK-293 cells) (from UniProt O15379 1-428)
binding [1]: binds

Flag-HDAC3 (expressed in MCF-7 cells) (from UniProt O15379 1-428)
binding [2]: binds

Flag-HDAC3 (in vitro translated) (from UniProt O15379 1-428)
binding [3]: binds

GFP-GATA1 (expressed in HEK-293 cells) (from UniProt P15976 1-413)
binding [4]: binds
binding [5]: binds

Myc-GATA1 (in vitro translated) (from UniProt P15976 1-413)
binding [6]: binds
binding [7]: binds
